PubChem BioAssay AID602196 – INSERM, 2012

Screen: 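Genes whose knock-down alters cisplatin killing of lung cancer cells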
Cells: human A549 lung cancer cells
Knock-down reagent: siRNA pair against human genes
Duration: 48 h transfection before cisplatin; time from cisplatin to read-out not stated
Conditions: cisplatin at a dose killing half of control-siRNA cells; exact dose and duration not given
Measured: 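Shift in cisplatin death relative to control siRNA, from -50 (all cells die) to +50 (no cells die); siRNAs harmful on their own scored 0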
Scale: two-siRNA summed score (-2 to +2): higher = both siRNAs protect from cisplatin killing; -2 means both sensitise; mean protection from cisplatin (shift in death) and protection from cisplatin (shift in death), siRNA C and protection from cisplatin (shift in death), siRNA D: higher = protection from cisplatin killing
Call rule: 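Each siRNA scores 0 if harmful alone by LDH or WST-1, otherwise +1 if it reduces and -1 if it increases cisplatin killing; a gene is active when both siRNAs agree (sum +2 or -2)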
Calls: active = both siRNAs shift cisplatin killing the same way; inactive = no consistent shift, or siRNA harmful alone
Shown is one part, drawn at random, of about 23,000 reagents tested. 455 of them (2%) were called active. 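Active includes both protection and sensitisation; some change values fall well beyond the stated -50 to +50 range.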 Reagent sequences are not shown. Not stated in the record: the amount of reagent.

| target gene | PubChem SID | two-siRNA summed score (-2 to +2) | mean protection from cisplatin (shift in death) (%) | protection from cisplatin (shift in death), siRNA C (%) | protection from cisplatin (shift in death), siRNA D (%) | Call |
| --- | --- | --- | --- | --- | --- | --- |
| PRDX1 | SID131518170 | 0 | 17 | 19.1 | 15 | inactive |
| SUPV3L1 | SID131519013 | 1 | 0.8 | 14.3 | -12.6 | inactive |
| MEAF6 | SID131511438 | 0 | 4.4 | -8.3 | 17 | inactive |
| RPL37 | SID131501256 | -1 | -11 | 2 | -24 | inactive |
| LOC389908 (retired record) | SID131512296 | 0 | 5.3 | 2.1 | 8.5 | inactive |
| LOC391727 | SID131504986 | 0 | -4 | -14.2 | 6.1 | inactive |
| NMU | SID131500808 | -1 | -15.7 | -25.7 | -5.8 | inactive |
| LOC400123 | SID131507041 | 0 | -0.6 | 4.1 | -5.4 | inactive |
| BLMH | SID131503949 | 0 | -7.1 | -4.3 | -9.8 | inactive |
| NLRC3 | SID131507090 | 0 | -0.6 | -1.8 | 0.6 | inactive |
| CBX8 | SID131522464 | 1 | 18.8 | 26.7 | 10.9 | inactive |
| LOC257039 | SID131508783 | 0 | 1.5 | -3.7 | 6.6 | inactive |
| LOC387890 | SID131522768 | 1 | 23.5 | 27.2 | 19.7 | inactive |
| DOT1L | SID131516603 | 0 | 11.2 | 7 | 15.4 | inactive |
| C17orf78 | SID131513042 | 0 | 6.1 | -0.4 | 12.7 | inactive |
| LOC390680 | SID131512121 | 0 | 5.1 | -3.3 | 13.6 | inactive |
| LINC01019 | SID131506086 | 0 | -2 | -0.8 | -3.3 | inactive |
| KIZ | SID131519801 | 1 | 7.5 | -19.5 | 34.5 | inactive |
| GTF2E1 | SID131522234 | 1 | 17 | 9.2 | 24.8 | inactive |
| ZNF418 | SID131515937 | 0 | 9.9 | 7.7 | 12.1 | inactive |
| GOLM1 | SID131509458 | 0 | 2.2 | -0.7 | 5 | inactive |
| BATF3 | SID131512453 | 0 | 5.5 | -2.6 | 13.5 | inactive |
| NKIRAS2 | SID131517564 | 0 | 13.9 | 15 | 12.8 | inactive |
| MIB2 | SID131521111 | 1 | 12.2 | 20.7 | 3.7 | inactive |
| WBP4 | SID131513501 | 0 | 6.7 | -1.2 | 14.5 | inactive |
| SSTR5 | SID131520778 | 1 | 11.1 | 34.9 | -12.8 | inactive |
| CHUK | SID131508519 | 0 | 1.1 | 0.3 | 2 | inactive |
| YBX2 | SID131505862 | 0 | -2.5 | -3.8 | -1.1 | inactive |
| CDC123 | SID131501701 | -1 | -7.9 | 3.4 | -19.3 | inactive |
| LOC441013 | SID131512553 | 0 | 5.6 | 2.8 | 8.4 | inactive |
| SLC9A2 | SID131516996 | 0 | 12.1 | 11.7 | 12.5 | inactive |
| ALKBH3 | SID131522303 | 1 | 17.6 | 22.3 | 12.9 | inactive |
| CDK12 | SID131505667 | 0 | -2.8 | -2.7 | -2.8 | inactive |
| CCNB1IP1 | SID131514159 | 0 | 7.5 | 9.8 | 5.1 | inactive |
| LOC389452 | SID131510092 | 0 | 2.9 | 3.9 | 1.9 | inactive |
| SHROOM4 | SID131510553 | 0 | 3.4 | -6.8 | 13.6 | inactive |
| UBALD1 | SID131504746 | 0 | -4.6 | -3.9 | -5.3 | inactive |
| MC1R | SID131501756 | -1 | -7.5 | -0.2 | -14.9 | inactive |
| NPHP3 | SID131503725 | 0 | -8.2 | -6.7 | -9.6 | inactive |
| ZDHHC3 | SID131502820 | 0 | -27.8 | -1.6 | -54 | inactive |
| LOC339483 | SID131512943 | 0 | 6 | 11.4 | 0.6 | inactive |
| HTR4 | SID131508169 | 0 | 0.7 | 11.5 | -10.1 | inactive |

Targets listed so far whose gene name starts with S or s (4):
| target gene | PubChem SID | two-siRNA summed score (-2 to +2) | mean protection from cisplatin (shift in death) (%) | protection from cisplatin (shift in death), siRNA C (%) | protection from cisplatin (shift in death), siRNA D (%) | Call |
| --- | --- | --- | --- | --- | --- | --- |
| SUPV3L1 | SID131519013 | 1 | 0.8 | 14.3 | -12.6 | inactive |
| SSTR5 | SID131520778 | 1 | 11.1 | 34.9 | -12.8 | inactive |
| SLC9A2 | SID131516996 | 0 | 12.1 | 11.7 | 12.5 | inactive |
| SHROOM4 | SID131510553 | 0 | 3.4 | -6.8 | 13.6 | inactive |

Next records follow:
| target gene | PubChem SID | two-siRNA summed score (-2 to +2) | mean protection from cisplatin (shift in death) (%) | protection from cisplatin (shift in death), siRNA C (%) | protection from cisplatin (shift in death), siRNA D (%) | Call |
| --- | --- | --- | --- | --- | --- | --- |
| GPATCH8 | SID131517250 | 0 | 12.8 | 19.5 | 6.1 | inactive |
| UNC50 | SID131516058 | 0 | 10.2 | 14.1 | 6.2 | inactive |
| LIG1 | SID131500511 | -1 | -23.7 | -27.2 | -20.3 | inactive |
| PTMA | SID131509870 | 0 | 2.6 | -2.3 | 7.5 | inactive |
| LOC144983 | SID131515340 | 0 | 9 | 7.1 | 10.9 | inactive |
| LOC401624 | SID131511293 | 0 | 4.2 | 2.6 | 5.8 | inactive |
| RGL2 | SID131506038 | 0 | -2.1 | 8.2 | -12.5 | inactive |
| LOC440768 | SID131519220 | 1 | 3.8 | 18.2 | -10.6 | inactive |
| POMGNT1 | SID131514629 | 0 | 8 | 10 | 6.1 | inactive |
| NRL | SID131501908 | -1 | -6.6 | 4.8 | -18.1 | inactive |
| HOMER3 | SID131520357 | 1 | 9.6 | 10.5 | 8.8 | inactive |
| TRIO | SID131503826 | 0 | -7.6 | -8 | -7.2 | inactive |
| LOC402538 | SID131516755 | 0 | 11.5 | 16.7 | 6.4 | inactive |
| GJA10 | SID131503467 | 0 | -9.8 | -10.4 | -9.3 | inactive |
| ZNF705A | SID131512729 | 0 | 5.8 | -7.1 | 18.7 | inactive |
| SLC7A5P2 | SID131519740 | 1 | 7.2 | 1.2 | 13.2 | inactive |
| SPMAP2 | SID131506954 | 0 | -0.7 | -12.4 | 10.9 | inactive |
| RSBN1L | SID131514882 | 0 | 8.4 | 9.1 | 7.6 | inactive |
| AP5B1 | SID131508654 | 0 | 1.3 | -9.5 | 12.1 | inactive |
| LOC339819 | SID131516439 | 0 | 10.9 | 12.9 | 8.8 | inactive |
| CPSF2 | SID131508526 | 0 | 1.2 | 12.1 | -9.8 | inactive |
| NUB1 | SID131502957 | 0 | -17.3 | -1.2 | -33.4 | inactive |
| CNN1 | SID131523133 | 2 | 21.1 | 18.3 | 23.8 | active |
| AAMP | SID131515850 | 0 | 9.8 | 16.1 | 3.5 | inactive |
| NINJ1 | SID131513202 | 0 | 6.3 | 3.4 | 9.3 | inactive |
| IFT74 | SID131514652 | 0 | 8.1 | 17 | -0.8 | inactive |
| LOC285658 | SID131522799 | 1 | 24.8 | 33.9 | 15.6 | inactive |
| TPO | SID131512682 | 0 | 5.7 | 3.5 | 8 | inactive |
| EXOC3 | SID131520489 | 1 | 10.1 | 10.3 | 9.8 | inactive |
| ADCY6 | SID131506202 | 0 | -1.9 | -4.4 | 0.7 | inactive |
| DDX50 | SID131519211 | 1 | 3.7 | 8 | -0.5 | inactive |
